These results are taken from patent US20160252532A1, “pH-Biosensors Based on Compounds Produced From Pyruvic Acid For Magnetic Resonance Imaging and Spectroscopy and Their Uses” (TECHNISCHE UNIVERSITÄT MÜNCHEN, priority 2013, published 2016).

Data set [1] is described as follows: 13C-NMR calibration of pH-dependent chemical shifts of OMPD in sodium phosphate buffer. The format is physicochemical.
Data set [2] in a line: 13C-NMR calibration of pH-dependent chemical shifts of zymonic acid in sodium phosphate buffer. The format is physicochemical.
Data set [3] can be described thus: 1H-NMR pH-dependent proton chemical shifts of zymonic acid. Conditions: referenced to external standard TMS. The class given is physicochemical.
Data set [4] has as its system MCF-7 tumor cells. The experiment in a line: Hyperpolarized [1-13C]-pyruvate injected in MCF-7 tumor cells killed with Triton X-100, 13C-NMR of zymonic acid peaks vs pH. The class given is cell-based.
The nature of data set [5]: Decay of hyperpolarized zymonic acid (T1). The format is physicochemical.
The mark [6] stands for this setting: hyperpolarized, 13C-labeled, MCF-7 cells with Triton X-100.

For the compound `C/C(=C/C(=O)C(=O)O)C(=O)O` [OMPD, (Z)-4-methyl-2-oxopent-3-enedioic acid], in data set [1] (pH-values measured in random order), the “hysteresis effects in the pH-dependent chemical shift” value is “did not observe hysteresis effects”. Also, in data set [1] (range from pH 5 to pH 9), the “highest pH-dependent change in 13C chemical shift” value is reported as not above 12.2 ppm and the “highest pH-dependent change in chemical shift” value was “up to 12.2 ppm/pH”.

For the compound `CC1(C(=O)O)C=C(O)C(=O)O1` (stereo not drawn) [zymonic acid, 4-hydroxy-2-methyl-5-oxo-2,5-dihydrofuran-2-carboxylic acid], the “hysteresis effects in the pH-dependent shift” value in data set [2] (pH adjusted with NaOH or HCl) was “did not observe hysteresis effects”. Also, in data set [2] (thermally polarized and unlabeled zymonic acid), the “pH dependent change in 13C chemical shift, peak 1 (recap of FIG. 2)” value stood at 2.11 ppm/H. Besides, the “pH dependent change in 13C chemical shift, peak 1” value in data set [2] (thermally polarized, unlabeled, referenced to 13C-urea, best fit straight line) is reported as “approx. 2.1 ppm/pH”. In addition, the “pH dependent change in 13C chemical shift, peak 3” value in data set [2] (thermally polarized, referenced to 13C-urea, best fit straight line) was “approx. 1.0 ppm/pH”. Further, in data set [3], the “pH dependent change in 1H chemical shift, peak A” value is “approx. −0.04 ppm/pH” and the “pH dependent change in 1H chemical shift, peak B” value is on record as “approx. −0.3 ppm/pH”. Besides, in data set [4] (hyperpolarized zymonic acid, FIG. 4C), the “pH dependent linear change in 13C chemical shift, two peaks (maximum)” value is “up to 2.35 ppm/pH”. Also, in data set [4] (setting [6]), the “pH dependent 13C chemical shift, peak 1” value was “approx. 2.35 ppm/pH” and the “pH dependent 13C chemical shift, peak 2” value is “approx. 1.17 ppm/pH”. Besides, the “highest pH-dependent change in 13C chemical shift” value in data set [4] (range from pH 5 to pH 9) is given as “up to 2.35 ppm/pH”. Also, in data set [5] (3 T), the “T1 of hyperpolarized compound” value is 40 to 50 s. In addition, in data set [5] (7 T), the “T1 of hyperpolarized compound” value was “ca. 20 s”.
